Measurements reported in PubChem BioAssay AID504774 (Drosophila RNAi Screening Center, 2011).
In all, the deposit lists about 23,000 reagents; shown is an unselected part of those with a known target gene and a result. 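Values are quantile-normalised luminescence on an arbitrary scale; higher means more cells surviving MMS.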 A plus sign joins genes that one reagent is predicted to hit.

Purpose: 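Knock-downs that shift viability of MMS-exposed cells relative to untreated ones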 (primary screen)
System: Drosophila Kc167 cells
Reagent: long dsRNA against Drosophila genes, about 0.25 µg dsRNA per well
Time to read-out: about 6 days: 3 days knock-down, then 3 days with or without MMS
Conditions: methyl methanesulphonate 0.004% (w/v) for 3 days after knock-down
Detection: 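Viability in wells given MMS, read as ATP luminescence, normalised by quantiles plate by plate and averaged across replicates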
Reading the numbers: mean viability with MMS and viability with MMS: higher = more surviving cells after MMS

| target gene | dsRNA | mean viability with MMS | viability with MMS, replicate 1 | viability with MMS, replicate 2 |
| --- | --- | --- | --- | --- |
| CG10749 | DRSC09798 | 3.62e6 | 4.15e6 | 4.01e6 |
| zormin | DRSC07969 | 3.59e6 | 4.01e6 | 4.12e6 |
| zormin | DRSC08210 | 3.56e6 | 4.05e6 | 4.00e6 |
| zormin | DRSC08212 | 3.52e6 | 4.05e6 | 3.93e6 |
| zormin | DRSC08213 | 3.62e6 | 4.12e6 | 4.05e6 |
| zormin | DRSC08297 | 3.58e6 | 4.10e6 | 4.00e6 |
| zormin | DRSC08571 | 3.37e6 | 3.84e6 | 3.83e6 |
| zormin | DRSC22483 | 3.64e6 | 4.09e6 | 4.11e6 |
| CG43693 | DRSC09086 | 3.48e6 | 3.86e6 | 4.04e6 |
| CG43693 | DRSC10625 | 3.72e6 | 4.19e6 | 4.26e6 |
| TwdlF | DRSC12225 | 3.63e6 | 4.03e6 | 4.18e6 |
| CG44098 | DRSC12214 | 3.59e6 | 4.07e6 | 3.95e6 |
| CG44098 | DRSC12327 | 3.58e6 | 4.05e6 | 4.06e6 |
| CG8343 | DRSC04905 | 3.57e6 | 4.29e6 | 3.94e6 |
| CG9471 | DRSC16499 | 3.55e6 | 4.04e6 | 4.01e6 |
| Nepl20 | DRSC14878 | 3.57e6 | 4.03e6 | 4.06e6 |
| D19A | DRSC11133 | 3.34e6 | 3.79e6 | 3.82e6 |
| Mau2 | DRSC15550 | 3.55e6 | 4.03e6 | 4.04e6 |
| CG14545 | DRSC14889 | 3.64e6 | 3.99e6 | 4.27e6 |
| Rh50 | DRSC08692 | 3.55e6 | 4.06e6 | 3.99e6 |
| CG11044 | DRSC06026 | 3.59e6 | 3.97e6 | 4.15e6 |
| CG11034 | DRSC02121 | 3.63e6 | 4.03e6 | 4.17e6 |
| CG11034 | DRSC02122 | 3.60e6 | 4.12e6 | 4.02e6 |
| Flo1 | DRSC07427 | 3.67e6 | 4.18e6 | 4.14e6 |
| Nse4 | DRSC02239 | 3.44e6 | 4.10e6 | 3.68e6 |
| tex | DRSC16517 | 3.32e6 | 3.73e6 | 3.86e6 |
| CadN2 + CG42830 | DRSC03062 | 3.64e6 | 4.05e6 | 4.17e6 |
| CadN2 + CG42830 | DRSC03063 | 3.59e6 | 3.97e6 | 4.17e6 |
| CadN2 + CG42830 | DRSC03064 | 3.58e6 | 3.99e6 | 4.12e6 |
| CG18870 | DRSC04313 | 3.69e6 | 4.14e6 | 4.18e6 |
| Or33b | DRSC03387 | 3.47e6 | 3.85e6 | 4.03e6 |
| GstD5 | DRSC16686 | 3.60e6 | 4.06e6 | 4.07e6 |
| Sf3b2 | DRSC00619 | 2.54e6 | 2.79e6 | 3.02e6 |
| Hs3st-B | DRSC20067 | 3.57e6 | 4.05e6 | 4.03e6 |
| CG17780 + CG17781 | DRSC15266 | 3.52e6 | 3.97e6 | 3.99e6 |
| CG10053 | DRSC12502 | 3.54e6 | 3.97e6 | 4.05e6 |
| Ca-alpha1D | DRSC03284 | 3.70e6 | 3.88e6 | 4.56e6 |
| Mt2 | DRSC03374 | 3.60e6 | 4.19e6 | 3.97e6 |
| Or83a | DRSC12357 | 3.54e6 | 4.08e6 | 3.97e6 |
| Cyp4p1 | DRSC07372 | 3.77e6 | 4.15e6 | 4.20e6 |
| Cngl | DRSC20318 | 3.31e6 | 3.71e6 | 3.70e6 |
| Mst84B | DRSC12579 | 3.60e6 | 4.03e6 | 4.15e6 |
| CG17994 | DRSC04877 | 3.56e6 | 4.16e6 | 3.93e6 |
| gol | DRSC04689 | 3.57e6 | 4.11e6 | 4.01e6 |
| CG8303 | DRSC07140 | 3.45e6 | 3.86e6 | 3.94e6 |
| CG34382 | DRSC08999 | 3.63e6 | 4.14e6 | 4.04e6 |
| CG34382 | DRSC10166 | 3.56e6 | 4.05e6 | 4.01e6 |
| CG34382 | DRSC10167 | 3.51e6 | 3.93e6 | 4.03e6 |
| mus302 | DRSC09905 | 3.51e6 | 4.01e6 | 3.94e6 |
| CG9997 | DRSC16591 | 4.19e6 | 4.94e6 | 5.10e6 |
| prc | DRSC11385 | 3.71e6 | 4.10e6 | 4.25e6 |
| CG5267 | DRSC06928 | 3.51e6 | 3.96e6 | 4.01e6 |
| QC | DRSC09736 | 3.82e6 | 4.21e6 | 4.46e6 |
| Lgr1 | DRSC16675 | 3.53e6 | 4.11e6 | 3.90e6 |
| CG14803 | DRSC18556 | 3.51e6 | 3.98e6 | 3.99e6 |
| CG12885 | DRSC14572 | 3.49e6 | 3.94e6 | 3.95e6 |

Records listed so far whose target name starts with M or m (4):
| target gene | dsRNA | mean viability with MMS | viability with MMS, replicate 1 | viability with MMS, replicate 2 |
| --- | --- | --- | --- | --- |
| Mau2 | DRSC15550 | 3.55e6 | 4.03e6 | 4.04e6 |
| Mt2 | DRSC03374 | 3.60e6 | 4.19e6 | 3.97e6 |
| Mst84B | DRSC12579 | 3.60e6 | 4.03e6 | 4.15e6 |
| mus302 | DRSC09905 | 3.51e6 | 4.01e6 | 3.94e6 |

Next results follow:
| target gene | dsRNA | mean viability with MMS | viability with MMS, replicate 1 | viability with MMS, replicate 2 |
| --- | --- | --- | --- | --- |
| rha | DRSC17044 | 3.42e6 | 3.91e6 | 3.85e6 |
| spag4 | DRSC02973 | 3.41e6 | 3.70e6 | 3.98e6 |
| CG3600 (retired record) | DRSC18599 | 3.45e6 | 4.01e6 | 3.82e6 |
| mRpL46 | DRSC08391 | 3.52e6 | 4.01e6 | 3.96e6 |
| Phf5a | DRSC03261 | 3.36e6 | 3.63e6 | 3.92e6 |
| CG7564 | DRSC10880 | 3.29e6 | 3.67e6 | 3.72e6 |
| Nap1 | DRSC04626 | 3.69e6 | 4.17e6 | 4.17e6 |
| CG12081 | DRSC17802 | 3.50e6 | 4.09e6 | 3.89e6 |
| slmb | DRSC17056 | 3.17e6 | 3.67e6 | 3.69e6 |
| LeuRS | DRSC00581 | 3.31e6 | 3.55e6 | 3.86e6 |
| CG13056 | DRSC09937 | 3.74e6 | 4.12e6 | 4.27e6 |
| sds22 | DRSC17052 | 3.42e6 | 3.93e6 | 3.80e6 |
| Ir7e | DRSC18011 | 1.65e6 | 3.73e6 | 3.91e6 |
| CG15543 | DRSC15081 | 3.44e6 | 3.96e6 | 3.80e6 |
| TotA | DRSC13448 | 3.71e6 | 4.25e6 | 4.08e6 |
| Chs2 | DRSC11830 | 3.39e6 | 3.79e6 | 3.84e6 |
| CG15344 (retired record) | DRSC18029 | 3.49e6 | 4.00e6 | 3.93e6 |
| ac | DRSC18734 | 2.91e6 | 3.63e6 | 3.68e6 |
| ATP8A | DRSC05421 | 3.67e6 | 4.07e6 | 4.16e6 |
| ATP8A | DRSC06643 | 3.45e6 | 3.99e6 | 3.79e6 |
| ATP8A | DRSC06644 | 3.66e6 | 4.17e6 | 4.12e6 |
| Prosbeta7 | DRSC12186 | 3.24e6 | 3.74e6 | 3.68e6 |
| otu | DRSC18811 | 3.47e6 | 3.92e6 | 3.96e6 |
| CG13043 | DRSC09924 | 3.46e6 | 3.89e6 | 3.93e6 |
| Syt1 | DRSC00156 | 3.55e6 | 3.98e6 | 4.09e6 |
| Syt1 | DRSC00157 | 3.55e6 | 3.96e6 | 4.10e6 |
| Syt1 | DRSC00158 | 3.43e6 | 3.78e6 | 4.04e6 |
| Syt1 | DRSC00840 | 3.63e6 | 4.11e6 | 4.14e6 |
| Syt1 | DRSC22077 | 3.72e6 | 4.20e6 | 4.15e6 |
| yip2 | DRSC03640 | 3.53e6 | 4.02e6 | 4.00e6 |
| SkpC | DRSC20375 | 3.71e6 | 4.17e6 | 4.16e6 |
